Data as given in PubChem BioAssay AID1259254 (NCATS, 2017).
The whole screen tested about 59,000 reagents; shown is a random part of them. About 1,550 of them (2.6%) were called active. 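G2 share is only a proxy for re-replication; each gene was hit by three separate siRNAs, and active genes were retested.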 Raw values are not corrected between plates. Reagents against one gene are numbered here. Not given: the amount of reagent.

Aim: 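Genome-wide screen for genes that prevent DNA re-replication in cancer cells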 (primary screen)
Cell system: human HCT116 colorectal cancer cells
Reagent: single siRNA against human genes
Timing: 3 days
Measurement: 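Nuclei stained with Hoechst and imaged; cell-cycle phase assigned by DNA content; G2 share scaled per plate, non-targeting siRNA 0%, GMNN siRNA 100%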
Direction: G2 robust z-score and G2 cells, % of GMNN control: higher = more G2 cells, more excess DNA replication; raw share of cells in G2: higher = larger share of cells with G2 DNA content
Active means: 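An siRNA counts as active if its G2 robust z-score lies at least 5 MADs above the screen median; here such calls match roughly 38% of GMNN control or more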

no.	gene symbol	reagent no.	G2 robust z-score	G2 cells, % of GMNN control	raw share of cells in G2 (%)	outcome
1	RHOV	1	1.72	15.1	13.1	inactive
2	RHOV	2	0.177	4.21	6.24	inactive
3	RHOV	3	-1.05	-4.41	2.85	inactive
4	LINC01148	1	0.402	5.8	5.32	inactive
5	LINC01148	2	-0.381	0.29	3.11	inactive
6	LINC01148	3	0.408	5.84	6.48	inactive
7	NEK8	1	0.858	9.01	8.39	inactive
8	NEK8	2	-0.844	-2.97	4.11	inactive
9	NEK8	3	0.227	4.57	5.14	inactive
10	RAB27A	1	0.98	9.86	8.44	inactive
11	RAB27A	2	-0.509	-0.611	3.94	inactive
12	RAB27A	3	0.966	9.76	8.34	inactive
13	ADRA2B	1	-0.259	1.15	6.25	inactive
14	ADRA2B	2	-0.324	0.686	4.76	inactive
15	ADRA2B	3	3.06	24.5	10.8	inactive
16	FXYD1	1	1.64	14.5	10.6	inactive
17	FXYD1	2	-1.36	-6.62	2.54	inactive
18	FXYD1	3	-0.495	-0.513	4.18	inactive
19	PKDREJ	1	3.71	29.1	15.9	inactive
20	PKDREJ	2	-0.146	1.94	5.44	inactive
21	PKDREJ	3	-1.03	-4.26	2.71	inactive
22	CNTD1	1	0.053	3.34	5.43	inactive
23	CNTD1	2	0.533	6.72	5.33	inactive
24	CNTD1	3	-0.571	-1.05	1.51	inactive
25	PAGE2	1	3.35	26.5	13.2	inactive
26	PAGE2	2	-0.826	-2.84	2.16	inactive
27	PAGE2	3	-0.673	-1.77	2.63	inactive
28	NPTXR	1	0.334	5.32	5.3	inactive
29	NPTXR	2	-1.18	-5.31	3.62	inactive
30	NPTXR	3	3.72	29.2	15.6	inactive
31	PDIA4	1	5.36	40.7	20.6	active
32	PDIA4	2	-0.888	-3.28	2.08	inactive
33	PDIA4	3	-1.14	-5.07	2.69	inactive
34	PRDX5	1	0.987	9.91	10.7	inactive
35	PRDX5	2	-0.912	-3.45	3.04	inactive
36	PRDX5	3	1.99	16.9	9.53	inactive
37	ZIC1	1	-0.323	0.694	3.76	inactive
38	ZIC1	2	-0.424	-0.0165	5.98	inactive
39	ZIC1	3	1.08	10.6	7.77	inactive
40	CST6	1	-0.141	1.98	4.78	inactive
41	CST6	2	2.63	21.5	12.6	inactive
42	CST6	3	4.32	33.4	17.2	inactive
43	TBX18	1	6.09	45.8	21.4	active
44	TBX18	2	0.323	5.24	6.92	inactive
45	TBX18	3	3.54	27.9	14.7	inactive
46	OR10K2	1	-0.308	0.801	5.12	inactive
47	OR10K2	2	4.91	37.5	17.5	inactive
48	OR10K2	3	-1.05	-4.45	1.75	inactive
49	FSIP1	1	-0.495	-0.513	3.42	inactive
50	FSIP1	2	0.0178	3.09	4	inactive
51	FSIP1	3	0.41	5.86	4.61	inactive
52	RHCG	1	0.799	8.59	9.85	inactive
53	RHCG	2	-0.0434	2.66	5.23	inactive
54	RHCG	3	0.0192	3.1	4.99	inactive
55	LOC645984 (retired record)	1	-0.672	-1.76	3.11	inactive
56	LOC645984 (retired record)	2	7.77	57.6	24.6	active
57	LOC645984 (retired record)	3	0.533	6.72	5.18	inactive
58	SOD1	1	3.92	30.6	16	inactive
59	SOD1	2	3.76	29.4	13.7	inactive
60	SOD1	3	0.924	9.47	7.79	inactive
61	CAMSAP1	1	1.02	10.1	7.23	inactive
62	CAMSAP1	2	-0.0867	2.36	3.75	inactive
63	CAMSAP1	3	0.145	3.99	4.02	inactive
64	USP47	1	-0.106	2.22	6.33	inactive
65	USP47	2	0.588	7.1	7.42	inactive
66	USP47	3	-0.849	-3.01	2.79	inactive
67	RTL6	1	1.94	16.6	9.63	inactive
68	RTL6	2	-0.308	0.801	3.69	inactive
69	RTL6	3	-0.842	-2.96	1.51	inactive

Only “raw share of cells in G2 (%)”, for 3 of the entries above:
SOD1 #1	16
SOD1 #2	13.7
SOD1 #3	7.79
